Consider 4 molecules from paper PMC12898535.

Sequences of proteins named here, by UniProt entry; tags and fusion partners are left off.
UniProt O88271: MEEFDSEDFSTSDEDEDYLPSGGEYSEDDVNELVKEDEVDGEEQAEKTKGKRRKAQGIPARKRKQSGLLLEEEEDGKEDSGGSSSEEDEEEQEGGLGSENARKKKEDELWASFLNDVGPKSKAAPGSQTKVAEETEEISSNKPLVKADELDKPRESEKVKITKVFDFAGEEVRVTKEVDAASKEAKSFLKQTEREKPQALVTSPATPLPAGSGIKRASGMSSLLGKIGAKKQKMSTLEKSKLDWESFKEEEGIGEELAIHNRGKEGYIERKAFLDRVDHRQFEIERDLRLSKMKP
UniProt P28740: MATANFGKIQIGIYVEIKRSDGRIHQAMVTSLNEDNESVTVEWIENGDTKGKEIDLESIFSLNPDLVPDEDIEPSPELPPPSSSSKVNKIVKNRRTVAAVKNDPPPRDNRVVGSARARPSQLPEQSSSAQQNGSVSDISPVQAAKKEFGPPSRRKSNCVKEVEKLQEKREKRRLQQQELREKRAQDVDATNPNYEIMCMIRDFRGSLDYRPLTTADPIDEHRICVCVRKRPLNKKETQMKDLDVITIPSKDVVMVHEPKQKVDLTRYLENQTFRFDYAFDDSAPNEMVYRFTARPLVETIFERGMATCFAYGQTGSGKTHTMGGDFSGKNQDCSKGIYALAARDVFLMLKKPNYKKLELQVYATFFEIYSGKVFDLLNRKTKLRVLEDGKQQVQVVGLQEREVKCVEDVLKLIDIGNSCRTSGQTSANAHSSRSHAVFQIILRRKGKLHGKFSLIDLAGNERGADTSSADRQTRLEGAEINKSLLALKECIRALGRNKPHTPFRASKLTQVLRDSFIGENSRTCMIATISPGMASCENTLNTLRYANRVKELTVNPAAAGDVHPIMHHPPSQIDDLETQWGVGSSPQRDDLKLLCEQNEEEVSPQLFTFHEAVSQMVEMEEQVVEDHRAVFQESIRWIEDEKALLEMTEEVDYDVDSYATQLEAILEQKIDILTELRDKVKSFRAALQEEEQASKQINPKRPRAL

Results are given in words; binding and its absence hold for the method and conditions named. Binding seen in cells or lysates may run through a third protein. A yes stands for co-enrichment or nearness to the bait. Other partners may have been found.

To fix the notation:
B1: Kif2c/MCAK (protein, UniProt Q922S8 1-721)
chain: MESLHARLFPGLSINIQRSNGLIHPANISTVNVEKSCVSVEWIEGGTTKGKEIDIDDVAAINPELLQLLPLRPKDSLPLQENVTVPKQKRKSVNSKIPALKEGLRSRSTRMSTVSEVRIPAQENEMEVELPVPTNSRKQFAIPSHPRASCSTVTELPLLMVSEEAEEQAHSTRSTSSANPGNSVRRKSCIVKEMEKMKNKREEKRAQNSELRIKRAQEYDSSFPNWEFARMIKEFRVTMECSPLTVTDPIEEHRICVCVRKRPLNKQELAKKEIDVISVPSKCLLLVHEPKLKVDLTKYLENQAFCFDFAFDETASNEVVYRFTARPLVQTIFEGGKATCFAYGQTGSGKTHTMGGDLSGKSQNASKGIYAMASRDVFLLKNQPRYRNLNLEVYVTFFEIYNGKVFDLLNKKAKLRVLEDSRQQVQVVGLQEYLVTCADDVIKMINMGSACRTSGQTFANSNSSRSHACFQILLRTKGRLHGKFSLVDLAGNERGADTSSADRQTRMEGAEINKSLLALKECIRALGQNKAHTPFRESKLTQVLRDSFIGENSRTCMIAMISPGISSCEYTLNTLRYADRVKELSPHSGPSGEQPVQMETEVMEASSNGTSLTGNEEEELSSQMSSFNEAMTQIRELEERALEELREIIQQGPNWLELSEMTDQPDYDLETFVNKAESALTQQAKQAKHFSALREVIKALRLAMQLEEQASKQINSKKRHQ
B2: RCC1 (protein, UniProt Q8VE37 1-421)
chain: MPPKRIAKRRSPPEDAIPKSKKVKVSHRSHNTEPGLVLTLGQGDVGQLGLGESVLERKKPALVPLLQDVVQAEAGGMHTVCLSQSGQVYSFGCNDEGALGRDTSVEGSEMVPGKVELQEKVVQVSAGDSHTAALTEDGRVFLWGSFRDNNGVIGLLEPMKKSMVPVQVQLDAPVVKVASGNDHLVMLTNDGDLYTLGCGEQGQLGRVPELFANRGGRQGLGRLLVPRCVLLKSRGTRGRVRFQDAFCGAYFTFAISREGHVYGFGLSNYHQLGTPGTGSCFIPQNLTSFKNSTKSWVGFSGGQHHTVCMDSEGKAYSLGRAEYGRLGLGEGAEEKSIPTLISRLPVVSSVACGASVGYAVSKDGRVFAWGMGTNYQLGTGQDEDAWSPVEMTGKQLENRVVLTVSSGGQHTVLLVKDQAQS

This test concerns the target 3xFLAG-tagged CFDP1 (mouse) (UniProt O88271). Kind of test: affinity purification with mass spectrometry; nuclear extracts of NIH3T3 cells stably expressing 3xFLAG-CFDP1; FLAG M2 magnetic beads, ~16 h at 4 °C; wash 1x TBS, 0.05% Triton X-100; elution with 3xFLAG peptide; SDS-PAGE and mass spectrometry.
“TPX2 (NIH3T3) (from UniProt A2APB8 1-745)”: the binding entry was “binds”.

Take Kif2a (from UniProt P28740 1-705): the binding entry is “binds”.

Take B1: the binding result is listed as “binds”.

In the case of B2, the binding result is reported as “binds”.
